Reference: PubChem BioAssay AID248 (DTP/NCI, 2004)
The list does not hold the whole screen: it is rich in T/C values a quarter to a half above the control, in often repeated tests (any T/C) and in doses without a T/C. Other doses and runs of a compound stand elsewhere. T/C is the treated group as % of the vehicle group. Some doses have a count of surviving animals in place of a T/C: the source files T/C as zero there, which appears to mark a toxic dose or a test without result, not a measured value. Some doses without a T/C left all or most animals alive at the check, yet need not have been tolerated: survival well below the control is almost never listed, so the zero probably covers shortened survival too. Survivors were counted at the toxicity check, usually on the fifth day, unless a day is given; later deaths do not show. Schedules are NCI's codes, read here as Q, the interval in days (D) or hours (H), X, the number of doses. Some schedule codes hold Z or #, which are not explained here. Some entries hold several experiments; the values are given in rising order. Where survival is the endpoint, this PubChem deposit counts one and a half times the control or more as active, and values a quarter to a half above the control carry no call in these data; other NCI protocols may use other cut-offs. Some T/C values are followed by the survivors on the day toxicity was checked, most often the fifth; without a count, all were alive then.

Test system: L1210 leukemia ip in BDF1 mice, survival T/C
Assay: NCI In Vivo Anticancer Drug Screen. Data for tumor model L1210 Leukemia (intraperitoneal) in B6D2F1 (BDF1) mice
Details: T/C endpoint: mean survival time, higher T/C = longer survival
[1] = dose: 400.0 mg/kg/injection, schedule: Q01DX001 (ip), vehicle: carboxymethylcellulose (CMC)
[2] = dose: 400.0 mg/kg/injection, schedule: Q01DX001 (ip), vehicle: saline
[3] = dose: 400.0 mg/kg/injection, schedule: Q01DX009 (ip), vehicle: saline with Tween-80
[4] = dose: 100.0 mg/kg/injection, schedule: Q04DX002 (ip), vehicle: saline
[5] = dose: 200.0 mg/kg/injection, schedule: Q04DX003 (ip), vehicle: saline
[6] = dose: 400.0 mg/kg/injection, schedule: Q04DX003 (ip), vehicle: saline
[7] = dose: 100.0 mg/kg/injection, schedule: Q04DX003 (ip), vehicle: saline
[8] = dose: 100.0 mg/kg/injection, schedule: Q04DX003 (ip), vehicle: saline with Tween-80
[9] = dose: 200.0 mg/kg/injection, schedule: Q04DX003 (ip), vehicle: saline with Tween-80
[10] = dose: 400.0 mg/kg/injection, schedule: Q04DX003 (ip), vehicle: saline with Tween-80

COc1cc(C=Nc2cccc(F)c2)ccc1N(CCCl)CCCl
survivor count (dose: 20.0 mg/kg/injection, schedule: Q01DX009 (ip), vehicle: acetone): 2 of 6
T/C (dose: 20.0 mg/kg/injection, schedule: Q01DX009 (ip), vehicle: carboxymethylcellulose (CMC)): 129 % of control
survivor count (dose: 40.0 mg/kg/injection, schedule: Q01DX009 (ip), vehicle: acetone): 0 of 6
T/C (dose: 40.0 mg/kg/injection, schedule: Q01DX009 (ip), vehicle: carboxymethylcellulose (CMC)): 126 and 141 % of control
survivor count (dose: 80.0 mg/kg/injection, schedule: Q01DX009 (ip), vehicle: acetone): 0 of 6
T/C (dose: 80.0 mg/kg/injection, schedule: Q01DX009 (ip), vehicle: carboxymethylcellulose (CMC)): 125 % of control
survivor count (dose: 100.0 mg/kg/injection, schedule: Q01DX001 (ip), vehicle: acetone): 0 of 6
T/C (dose: 150.0 mg/kg/injection, schedule: Q01DX001 (ip), vehicle: saline): 141 % of control [5 of 6 alive]
survivor count (dose: 160.0 mg/kg/injection, schedule: Q01DX009 (ip), vehicle: acetone): 0 of 6
survivor count (dose: 160.0 mg/kg/injection, schedule: Q01DX009 (ip), vehicle: carboxymethylcellulose (CMC)): 6 of 6
survivor count (dose: 200.0 mg/kg/injection, schedule: Q01DX001 (ip), vehicle: acetone): 0 of 6
survivor count (dose: 400.0 mg/kg/injection, schedule: Q01DX001 (ip), vehicle: acetone): 0 of 6
survivor count [1]: 1 of 6
survivor count [2]: 0 of 6

COc1cccc(N2C(=O)CC(=P(c3ccccc3)(c3ccccc3)c3ccccc3)C2=O)c1
survivor count (dose: 300.0 mg/kg/injection, schedule: Q01DX001 (ip), vehicle: saline): 3 of 6

O=C(O)c1cccc2[nH]c(=O)oc(=O)c12
survivor count [3]: 6 of 6

CCCCCCCCCC(=O)N(CC)CC
survivor count [4]: 3 of 3

CC(C)C(N)(CCCN(C)C)c1cccc2ccccc12 (centres undefined)
survivor count (dose: 25.0 mg/kg/injection, schedule: Q04DX002 (ip), vehicle: saline with Tween-80): 3 of 3
survivor count (dose: 50.0 mg/kg/injection, schedule: Q04DX002 (ip), vehicle: saline with Tween-80): 3 of 3

CN1CCC=C(CN2c3ccccc3Sc3ccccc32)C1
survivor count [5]: 1 of 6
survivor count [6]: 0 of 6

C[N+](C)(CCCCCCCCCC[N+](C)(C)CC(=O)c1ccccc1)CC(=O)c1ccccc1
survivor count [7]: 0 of 6
survivor count [5]: 0 of 6
survivor count [6]: 0 of 6

CC[N+](CC)(CC)CCCNC(=O)C12CC3CC(CC(C3)C1)C2
survivor count [4]: 0 of 3 and 1 of 3
survivor count (dose: 200.0 mg/kg/injection, schedule: Q04DX002 (ip), vehicle: saline): 0 of 3
survivor count (dose: 400.0 mg/kg/injection, schedule: Q04DX002 (ip), vehicle: saline): 0 of 3

CC(=O)Oc1cc(C(C)=O)c(O)c2ccccc12
survivor count (dose: 400.0 mg/kg/injection, schedule: Q01DX001 (ip), vehicle: water): 0 of 6

[Cu+].[S-]c1ccsc1
survivor count (dose: 100.0 mg/kg/injection, schedule: Q01DX001 (ip), vehicle: carboxymethylcellulose (CMC)): 0 of 4
survivor count (dose: 200.0 mg/kg/injection, schedule: Q01DX001 (ip), vehicle: carboxymethylcellulose (CMC)): 0 of 4
survivor count [1]: 1 of 4

Cc1cc(=O)oc2cc(OC(=O)Nc3ccc(F)c([N+](=O)[O-])c3)ccc12
survivor count (dose: 400.0 mg/kg/injection, schedule: Q01DX009 (ip), vehicle: Klucel (hydroxypropylcellulose) (HPC)): 2 of 6

N#CCCN(CCCN1CCOCC1)C(=S)Nc1cccc(C(F)(F)F)c1
survivor count (dose: 200.0 mg/kg/injection, schedule: Q04DX002 (ip), vehicle: saline with Tween-80): 3 of 3

O=S1(=O)C(Cl)(Cl)SC(Cl)(Cl)S(=O)(=O)C1(Cl)Cl
survivor count (dose: 75.0 mg/kg/injection, schedule: Q01DX009 (ip), vehicle: saline): 0 of 6
survivor count [7]: 3 of 6
survivor count (dose: 115.0 mg/kg/injection, schedule: Q01DX009 (ip), vehicle: saline): 0 of 6
survivor count (dose: 170.0 mg/kg/injection, schedule: Q01DX009 (ip), vehicle: saline): 0 of 6
survivor count [5]: 0 of 6
survivor count [2]: 0 of 6

CC(=O)c1cc(I)c(O)c2ncccc12
survivor count (dose: 50.0 mg/kg/injection, schedule: Q04DX003 (ip), vehicle: saline with Tween-80): 2 of 6
survivor count [8]: 0 of 6
survivor count [9]: 0 of 6
survivor count [10]: 0 of 6

CC1(c2ccccc2)CCC(NN=C(N)N)=NC1 (centres undefined)
survivor count (dose: 30.0 mg/kg/injection, schedule: Q01DX Z (ip), vehicle: methylcellulose (MC)): 3 of 6

CCCCOc1ccc(CC(N)C(=O)O)cc1N(CCCl)CCCl (centres undefined)
T/C (dose: 14.0 mg/kg/injection, schedule: Q01DX001 (ip), vehicle: saline): 131 % of control
T/C (dose: 15.0 mg/kg/injection, schedule: Q01DX001 (ip), vehicle: carboxymethylcellulose (CMC)): 134 and 137 % of control
T/C (dose: 20.0 mg/kg/injection, schedule: Q01DX001 (ip), vehicle: saline): 128 % of control
T/C (dose: 22.5 mg/kg/injection, schedule: Q01DX001 (ip), vehicle: carboxymethylcellulose (CMC)): 136 % of control
survivor count (dose: 30.0 mg/kg/injection, schedule: Q01DX001 (ip), vehicle: carboxymethylcellulose (CMC)): 2 of 6
T/C (dose: 30.0 mg/kg/injection, schedule: Q01DX001 (ip), vehicle: saline): 136 % of control
survivor count (dose: 60.0 mg/kg/injection, schedule: Q01DX001 (ip), vehicle: carboxymethylcellulose (CMC)): 0 of 6
survivor count (dose: 75.0 mg/kg/injection, schedule: Q01DX001 (sc), vehicle: carboxymethylcellulose (CMC)): 0 of 6
T/C (dose: 120.0 mg/kg/injection, schedule: Q01DX001 (ip), vehicle: saline): 131 % of control [4 of 6 alive]
survivor count (dose: 150.0 mg/kg/injection, schedule: Q01DX001 (sc), vehicle: carboxymethylcellulose (CMC)): 0 of 6
survivor count (dose: 300.0 mg/kg/injection, schedule: Q01DX001 (sc), vehicle: carboxymethylcellulose (CMC)): 0 of 6

COC(=O)Nc1cccc(NC(=O)C(=O)O)c1
survivor count [10]: 2 of 6

CC1CCCC(CN=Cc2ccc(O)cc2O)[N-]1.CC1CCCC(CN=Cc2ccc(O)cc2O)[N-]1.[Ni+2] (centres undefined)
survivor count [9]: 5 of 6
survivor count [10]: 3 of 6

CCCCNC(C)(C)C(SSSC(C)=O)c1ccco1 (centres undefined)
survivor count (dose: 100.0 mg/kg/injection, schedule: Q01DX009 (ip), vehicle: saline with Tween-80): 0 of 6
survivor count [8]: 6 of 6
survivor count [9]: 3 of 6
survivor count [10]: 0 of 6

COc1ccccc1C(=O)OCC(=O)c1ccc(-c2ccccc2)cc1
survivor count (dose: 100.0 mg/kg/injection, schedule: Q01DX001 (ip), vehicle: saline): 4 of 4

Cc1ccc(N2CCNCC2)cc1
survivor count [7]: 0 of 6
survivor count [5]: 0 of 6
survivor count [6]: 0 of 6

CCC1CCCCN1C (centres undefined)
survivor count (dose: 150.0 mg/kg/injection, schedule: Q01DX009 (ip), vehicle: saline with Tween-80): 0 of 6
survivor count (dose: 225.0 mg/kg/injection, schedule: Q01DX009 (ip), vehicle: saline with Tween-80): 0 of 6
survivor count (dose: 335.0 mg/kg/injection, schedule: Q01DX009 (ip), vehicle: saline with Tween-80): 0 of 6

CCN(Cc1cc(OC)c(OC)c(OC)c1)C1CCCCC1
survivor count (dose: 200.0 mg/kg/injection, schedule: Q01DX009 (ip), vehicle: saline): 2 of 3

CCCCSc1ncc(C)c(N(C)C)n1
survivor count (dose: 100.0 mg/kg/injection, schedule: Q01DX Z (ip), vehicle: methylcellulose (MC)): 5 of 6
survivor count (dose: 200.0 mg/kg/injection, schedule: Q01DX Z (ip), vehicle: methylcellulose (MC)): 0 of 6

CC(=N\O)/C(=N\O)C(=O)c1ccccc1
survivor count [3]: 3 of 6

Cc1cc(=O)[nH]c(O)c1C(=O)CC(=O)c1ccccc1
survivor count [2]: 1 of 6
